Values from PubChem BioAssay AID1259425 (University of Nebraska Medical Center, 2018).

- Purpose: 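Compare each knockdown with KSR1 silencing using changes in marker transcripts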 (primary screen)
- Cells: HCT116 human colon cancer cells
- Reagent: siRNA pool against human genes, 50 nM siRNA
- Measurement: 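After 50 nM siRNA pool, branched-DNA assay measures six marker transcripts per well, minus blank, normalised to the geometric mean of two housekeeping transcripts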
- Scale: BNIP3L mRNA: higher = more BNIP3L transcript after knockdown; NDRG1 mRNA: higher = more NDRG1 transcript after knockdown; BNIP3 mRNA: higher = more BNIP3 transcript after knockdown; ALDOC mRNA: higher = more ALDOC transcript after knockdown; ACSL5 mRNA: higher = more ACSL5 transcript after knockdown
Shown is one part, drawn at random, of about 14,000 reagents. The record does not give: the time to read-out.

target | BNIP3L mRNA, set 1 | NDRG1 mRNA, set 1 | BNIP3 mRNA, set 1 | ALDOC mRNA, set 1 | ACSL5 mRNA, set 1
BEX4 | 0.4 | 0.492 | 0.578 | 0.0411 | 0.564
ERH | 0.0866 | 0.134 | 0.384 | 0.0232 | 0.267
PTK6 | 0.0568 | 0.0441 | 0.349 | 0.00502 | 0.0674
MT1F | 0.265 | 1.49 | 0.226 | 0.262 | 0.186
CDK6 | 0.0811 | 0.401 | 0.499 | 0.0151 | 0.403
YEATS4 | 0.104 | 0.27 | 0.283 | 0.021 | 0.0907
NTM | 0.137 | -0.011 | 0.455 | -0.0116 | 0.363
SLC20A1 | 0.0592 | 0.0462 | 0.284 | 0.0103 | 0.108
CYP19A1 | 0.0505 | 0.295 | 0.224 | 0.0474 | 0.193
PCNX1 | 0.109 | 0.345 | 0.141 | 0.0258 | 0.258
INPPL1 | 0.107 | 0.165 | 0.33 | 0.0372 | 0.221
CREB1 | 0.0482 | 0.0307 | 0.14 | 0.00142 | 0.0633
KRT76 | 0.122 | 0.55 | 0.209 | 0.0295 | 0.175
DDX21 | 0.137 | 0.52 | 0.307 | 0.0281 | 0.258
REXO5 | 0.133 | 0.255 | 0.379 | 0.0228 | 0.389
CACNG1 | 0.138 | 0.361 | 0.358 | 0.0668 | 0.244
EMC2 | 0.126 | 0.159 | 0.271 | 0.0419 | 0.143
TENM3 | 0.0971 | 0.187 | 0.272 | 0.0395 | 0.152
SOX13 | 0.0941 | 0.507 | 0.317 | 0.0223 | 0.155
LINC00474 | 0.282 | 0.566 | 0.555 | 0.0529 | 0.377
ANXA13 | 0.102 | 0.19 | 0.271 | 0.00481 | 0.288
CAMK1 | 0.24 | 0.36 | 0.968 | 0.0144 | 0.263
KIAA1755 | 0.11 | 0.0679 | 0.313 | 0.0291 | 0.078
KIFBP | 0.192 | 0.23 | 0.394 | 0.0455 | 0.204
FLT3LG | 0.0882 | 0.101 | 0.295 | 0.0108 | 0.173
NTN4 | 0.154 | 0.103 | 0.291 | 0.0704 | 0.0374
JADE3 | 0.102 | 0.597 | 0.368 | 0.0376 | 0.249
ENG | 0.119 | 0.17 | 0.197 | 0.0169 | 0.102
VAV1 | 0.117 | 0.283 | 0.285 | 0.0096 | 0.278
FUNDC2 | 0.0775 | 0.124 | 0.398 | 0.0097 | 0.121
EDC4 | 0.0492 | 0.164 | 0.447 | 0.0328 | 0.209
SLC14A1 | 0.0774 | 0.111 | 0.315 | 0.0151 | 0.122
KLF13 | 0.108 | 0.0635 | 0.233 | 0.00492 | 0.329
INO80 | 0.0471 | 0.164 | 0.335 | 0.0479 | 0.248
CST7 | 0.0339 | 0.164 | 0.2 | 0.0191 | 0.174
EIF3J | 0.0809 | 0.517 | 0.297 | -0.00657 | 0.36
ST6GALNAC6 | 0.18 | 0.268 | 0.315 | 0.0351 | 0.201
UBR5 | 0.117 | 0.107 | 0.255 | 0.0325 | 0.0924
NPY2R | 0.204 | 0.269 | 0.245 | 0.0421 | 0.117
ADGRE3 | 0.173 | 0.176 | 0.282 | 0.0241 | 0.259
POU1F1 | 0.131 | 0.137 | 0.243 | 0.0221 | 0.17
TSPAN12 | 0.144 | 0.29 | 0.658 | 0.0623 | 0.206
LEMD3 | 0.0759 | 0.178 | 0.318 | 0.011 | 0.411
PC | 0.0917 | 0.156 | 0.268 | 0.0217 | 0.168
WDR59 | 0.0912 | 0.149 | 0.266 | 0.0185 | 0.16
HOXD8 | 0.0709 | 0.268 | 0.315 | 0.024 | 0.274
GALNT14 | 0.218 | 0.354 | 0.502 | 0.0472 | 0.143
TRMT9B | 0.0385 | 0.327 | 0.23 | 0.0188 | 0.176
NKX3-1 | 0.0633 | 0.301 | 0.275 | 0.0135 | 0.126
RRAD | 0.171 | 0.24 | 0.335 | 0.028 | 0.108
NTMT1 | 0.143 | 0.202 | 0.323 | 0.0292 | 0.22
INSL6 | 0.0567 | 0.132 | 0.189 | 0.0221 | 0.117
SRC | 0.126 | 0.0638 | 0.282 | 0.00879 | 0.22
ZNF469 | 0.209 | 1.26 | 0.27 | 0.0809 | 0.433
ASB1 | 0.148 | 0.755 | 0.447 | 0.02 | 0.545
HTR2A | 0.282 | 0.666 | 0.724 | 0.0982 | 0.251
SIGIRR | 0.074 | 0.0568 | 0.313 | 0.0233 | 0.171
HSD17B4 | 0.113 | 0.34 | 0.276 | 0.011 | 0.193
EFHC2 | 0.292 | 0.58 | 0.501 | 0.0973 | 0.272
WNT11 | 0.0889 | 0.107 | 0.323 | 0.019 | 0.174
GGPS1 | 0.136 | 0.149 | 0.286 | 0.0463 | 0.172
TMUB1 | 0.319 | 0.84 | 0.559 | 0.23 | 0.603
NPAT | 0.142 | 0.23 | 0.232 | 0.039 | 0.189
